Source: patent publication US10273251B2, “Composition, cured film, near infrared ray absorption filter, solid-state imaging device, infrared sensor, and compound” (FUJIFILM Corporation, priority 2014, dated 2019)

Columns and labels:
[1] = Near infrared shielding property evaluation of filter; details: filter 1.0 μm, 7.5 mass % compound; transmittance at maximum absorption wavelength
Procedure: (§1) Compositions below were mixed so as to prepare the composition. A solid content of the composition is 31 mass % and a content of the near infrared ray absorption substance with respect to the total solid content of the composition was 7.5 mass %.
(§2) Glass substrates (1737 manufactured by Corning Incorporated) were coated with respective compositions by using a spin coater such that film thicknesses after drying become 1.0 μm, and a heating treatment (prebaking) was performed for 120 seconds by using a hot plate of 100° C.
(§3) Subsequently, beta exposure was performed by 500 mJ/cm^2 by using an i-ray stepper exposure device FPA-3000i5+ (manufactured by Canon Inc.). Subsequently, puddle development was performed at 23° C. for 60 seconds by using CD-2060 (manufactured by Fujifilm Electronic Materials), a rinse treatment was performed with pure water on a glass substrate on which a beta coloration layer was formed, and spray drying was performed.
(§4) The heating treatment (post baking) was performed for 300 seconds by using a hot plate of 200° C., so as to obtain a near infrared ray absorption filter.
Transmittance of the respective near infrared ray absorption filters at maximum absorption wavelengths was measured by a spectrophotometer U-4100 (manufactured by Hitachi High-Technologies Corporation). Near infrared shielding properties were evaluated with criteria below.

[2] = Evaluation of transparency in a visible region of filter; details: filter 1.0 μm, 7.5 mass % compound; minimum transmittance at 500 to 600 nm
Procedure: as §1, §2, §3, §4
Transmittance of the respective near infrared ray absorption filters at a wavelength of 500 to 600 nm was measured by a spectrophotometer U-4100 (manufactured by Hitachi High-Technologies Corporation). Transparency in a visible region was evaluated with criteria below.

With CCCCCCCCC(CCCCCC)COc1cccc(-c2c3/c(=C(\C#N)c4cnc5cc(Cl)c(Cl)cc5n4)n(B(c4ccccc4)c4ccccc4)c(-c4cccc(OCC(CCCCCC)CCCCCCCC)c4)c3/c(=C(\C#N)c3cnc4cc(Cl)c(Cl)cc4n3)n2B(c2ccccc2)c2ccccc2)c1 [Compound D-1] the “Near infrared shielding properties” value [1] was “A (transmittance of maximum absorption wavelength≤5%)” and the “Transparency in visible region” value [2] was “A (95%≤minimum value of transmittance at a wavelength of 500 to 600 nm)”.
In the case of COCCOCCOc1cccc(-c2c3/c(=C(\C#N)c4cnc5cc(Cl)c(Cl)cc5n4)n(B(c4ccccc4)c4ccccc4)c(-c4cccc(OCCOCCOC)c4)c3/c(=C(\C#N)c3cnc4cc(Cl)c(Cl)cc4n3)n2B(c2ccccc2)c2ccccc2)c1 [Compound D-4], the “Near infrared shielding properties” value [1] was “A (transmittance of maximum absorption wavelength≤5%)” and the “Transparency in visible region” value [2] was “B (90%≤minimum value of transmittance at a wavelength of 500 to 600 nm<95%)”.
For CCCCCCCC/C=C\CCCCCCCCOc1cccc(-c2c3/c(=C(\C#N)c4cnc5cc(Cl)c(Cl)cc5n4)n(B(c4ccccc4)c4ccccc4)c(-c4cccc(OCCCCCCCC/C=C\CCCCCCCC)c4)c3/c(=C(\C#N)c3cnc4cc(Cl)c(Cl)cc4n3)n2B(c2ccccc2)c2ccccc2)c1 [Compound D-5], the “Near infrared shielding properties” value [1] was “A (transmittance of maximum absorption wavelength≤5%)” and the “Transparency in visible region” value [2] was “B (90%≤minimum value of transmittance at a wavelength of 500 to 600 nm<95%)”.
With Cc1cc2ncc(/C(C#N)=c3/c4c(-c5cccc(OCC(CCC(C)CC(C)(C)C)C(C)CC(C)(C)C)c5)n(B(c5ccccc5)c5ccccc5)/c(=C(/C#N)c5cnc6cc(C)c(C)cc6n5)c4c(-c4cccc(OCC(CCC(C)CC(C)(C)C)C(C)CC(C)(C)C)c4)n3B(c3ccccc3)c3ccccc3)nc2cc1C [Compound D-6] the “Near infrared shielding properties” value [1] was “A (transmittance of maximum absorption wavelength≤5%)” and the “Transparency in visible region” value [2] was “A (95%≤minimum value of transmittance at a wavelength of 500 to 600 nm)”.
In the case of CCC(C)COc1cccc(-c2c3/c(=C(\C#N)c4cnc5ccccc5n4)n(B(c4ccccc4)c4ccccc4)c(-c4cccc(OCC(C)CC)c4)c3/c(=C(\C#N)c3cnc4ccccc4n3)n2B(c2ccccc2)c2ccccc2)c1 [Compound D-7], the “Near infrared shielding properties” value [1] was “A (transmittance of maximum absorption wavelength≤5%)” and the “Transparency in visible region” value [2] was “B (90%≤minimum value of transmittance at a wavelength of 500 to 600 nm<95%)”.
With CCCCCCCCC(CCCCCCCC)COc1cccc(-c2c3/c(=C(\C#N)c4cnc5cc(C)ccc5n4)n(B(c4ccccc4)c4ccccc4)c(-c4cccc(OCC(CCCCCCCC)CCCCCCCC)c4)c3/c(=C(\C#N)c3cnc4cc(C)ccc4n3)n2B(c2ccccc2)c2ccccc2)c1 [Compound D-8] the “Near infrared shielding properties” value [1] was “A (transmittance of maximum absorption wavelength≤5%)” and the “Transparency in visible region” value [2] was “A (95%≤minimum value of transmittance at a wavelength of 500 to 600 nm)”.
For CCCCC(CC)COc1cccc(-c2c3/c(=C(\C#N)c4ccc5ccccc5n4)n(B(c4ccccc4)c4ccccc4)c(-c4cccc(OCC(CC)CCCC)c4)c3/c(=C(\C#N)c3ccc4ccccc4n3)n2B(c2ccccc2)c2ccccc2)c1 [Compound D-10], the “Near infrared shielding properties” value [1] was “A (transmittance of maximum absorption wavelength≤5%)” and the “Transparency in visible region” value [2] was “A (95%≤minimum value of transmittance at a wavelength of 500 to 600 nm)”.
For CCCCCCCCCCCCCCCCCCOc1cccc(-c2c3/c(=C(\C#N)c4nc5ccccc5s4)n(B(c4ccccc4)c4ccccc4)c(-c4cccc(OCCCCCCCCCCCCCCCCCC)c4)c3/c(=C(\C#N)c3nc4ccccc4s3)n2B(c2ccccc2)c2ccccc2)c1 [Compound D-11], the “Near infrared shielding properties” value [1] was “A (transmittance of maximum absorption wavelength≤5%)” and the “Transparency in visible region” value [2] was “B (90%≤minimum value of transmittance at a wavelength of 500 to 600 nm<95%)”.
In the case of CC(CCC(COc1cccc(-c2c3/c(=C(\C#N)c4cnc5ccccc5n4)n(B(c4ccccc4)c4ccccc4)c(-c4cccc(OCC(CCC(C)CC(C)(C)C)C(C)CC(C)(C)C)c4)c3/c(=C(\C#N)c3cnc4ccccc4n3)n2B(c2ccccc2)c2ccccc2)c1)C(C)CC(C)(C)C)CC(C)(C)C [Compound D-28], the “Near infrared shielding properties” value [1] was “A (transmittance of maximum absorption wavelength≤5%)” and the “Transparency in visible region” value [2] was “A (95%≤minimum value of transmittance at a wavelength of 500 to 600 nm)”.
With CCCCCCCCCCC(CCCCCCCC)COc1cccc(-c2c3/c(=C(\C#N)c4cnc5ccccc5n4)n(B(c4ccccc4)c4ccccc4)c(-c4cccc(OCC(CCCCCCCC)CCCCCCCCCC)c4)c3/c(=C(\C#N)c3cnc4ccccc4n3)n2B(c2ccccc2)c2ccccc2)c1 [Compound D-29] the “Near infrared shielding properties” value [1] was “A (transmittance of maximum absorption wavelength≤5%)” and the “Transparency in visible region” value [2] was “A (95%≤minimum value of transmittance at a wavelength of 500 to 600 nm)”.
In the case of CCCCCCCCCCC(CCCCCCCC)COc1cccc(-c2c3/c(=C(\C#N)c4cnc5cc(Cl)c(Cl)cc5n4)n(B(c4ccccc4)c4ccccc4)c(-c4cccc(OCC(CCCCCCCC)CCCCCCCCCC)c4)c3/c(=C(\C#N)c3cnc4cc(Cl)c(Cl)cc4n3)n2B(c2ccccc2)c2ccccc2)c1 [Compound D-31], the “Near infrared shielding properties” value [1] was “A (transmittance of maximum absorption wavelength≤5%)” and the “Transparency in visible region” value [2] was “A (95%≤minimum value of transmittance at a wavelength of 500 to 600 nm)”.
For CC(CCC(COc1cccc(-c2c3/c(=C(\C#N)c4cnc5cc(Cl)c(Cl)cc5n4)n(B(c4ccccc4)c4ccccc4)c(-c4cccc(OCC(CCC(C)CC(C)(C)C)C(C)CC(C)(C)C)c4)c3/c(=C(\C#N)c3cnc4cc(Cl)c(Cl)cc4n3)n2B(c2ccccc2)c2ccccc2)c1)C(C)CC(C)(C)C)CC(C)(C)C [Compound D-32], the “Near infrared shielding properties” value [1] was “A (transmittance of maximum absorption wavelength≤5%)” and the “Transparency in visible region” value [2] was “A (95%≤minimum value of transmittance at a wavelength of 500 to 600 nm)”.
For COc1ccc2oc(/C(C#N)=c3/c4c(-c5cccc(OCC(CCC(C)CC(C)(C)C)C(C)CC(C)(C)C)c5)n(B(c5ccccc5)c5ccccc5)/c(=C(/C#N)c5nc6cc(C)ccc6o5)c4c(-c4cccc(OCC(CCC(C)CC(C)(C)C)C(C)CC(C)(C)C)c4)n3B(c3ccccc3)c3ccccc3)nc2c1 [Compound D-43], the “Near infrared shielding properties” value [1] was “A (transmittance of maximum absorption wavelength≤5%)” and the “Transparency in visible region” value [2] was “A (95%≤minimum value of transmittance at a wavelength of 500 to 600 nm)”.
In the case of CCCCCCCCC(CCCCCC)COc1ccc(-c2c3/c(=C(\C#N)c4cnc5cc(Cl)c(Cl)cc5n4)n(B(c4ccccc4)c4ccccc4)c(-c4ccc(OCC(CCCCCC)CCCCCCCC)cc4)c3/c(=C(\C#N)c3cnc4cc(Cl)c(Cl)cc4n3)n2B(c2ccccc2)c2ccccc2)cc1 (stereo not shown) [Compound E-1, reference compound], the “Near infrared shielding properties” value [1] was “A (transmittance of maximum absorption wavelength≤5%)” and the “Transparency in visible region” value [2] was “C (80%≤minimum value of transmittance at a wavelength of 500 to 600 nm<90%)”.
